# Reference: the supplement of paper PMC8728848
# This is one part of the list.
# B1: Intelectin-1a (Mus musculus) (protein)
# chain: AEWSHPQFEKAEENLDTNRWGNSFFSSLPRSCKEIKQEHTKAQDGLYFLRTKNGVIYQTFCDMTTAGGGWTLVASVHENNMRGKCTVGDRWSSQQGNRADYPEGDGNWANYNTFGSAEAATSDDYKNPGYFDIQAENLGIWHVPNKSPLHNWRKSSLLRYRTFTGFLQHLGHNLFGLYKKYPVKYGEGKCWTDNGPALPVVYDFGDARKTASYYSPSGQREFTAGYVQFRVFNNERAASALCAGVRVTGCNTEHHCIGGGGFFPEGNPVQCGDFASFDWDGYGTHNGYSSSRKITEAAVLLFYR
# Experiments:
# Experiment in all cases: glycan array binding signal (z-score within array); higher = stronger binding
# Details in all cases: glycan notation: IUPAC condensed, linker removed
# [1] = biological target: Neu5Ac(a2-3)Gal(b1-4)[Fuc(a1-3)]GlcNAc(b1-3)Gal(b1-4)[Fuc(a1-3)]GlcNAc(b1-3)Gal(b1-4)[Fuc(a1-3)]GlcNAc
# In short: (§1)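 The binding signal is a Z-score computed within each array and averaged over linkers. Arrays of the same protein sequence at different concentrations or buffers were also averaged together. Data originate from 3228 arrays in the Consortium for Functional Glycomics database, kept only where the protein sequence was available.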
# [2] = biological target: Neu5Ac(a2-3)Gal(b1-4)[Fuc(a1-3)]GlcNAc(b1-3)GalNAc
# In short: as §1
# [3] = biological target: Neu5Ac(a2-3)Gal(b1-4)[Fuc(a1-3)]GlcNAc(b1-6)[Gal(b1-3)]GalNAc
# In short: as §1
# [4] = biological target: Neu5Ac(a2-3)Gal(b1-4)[Fuc(a1-3)]GlcNAc6S
# In short: as §1
# [5] = biological target: Neu5Ac(a2-3)Gal6S(b1-4)GlcNAc
# In short: as §1
# [6] = biological target: Neu5Ac(a2-3)Gal6S(b1-4)[Fuc(a1-3)]GlcNAc
# In short: as §1
# [7] = biological target: Neu5Ac(a2-3)GalNAc
# In short: as §1
# [8] = biological target: Neu5Ac(a2-3)GalNAc(b1-4)GlcNAc
# In short: as §1
# [9] = biological target: Neu5Ac(a2-3)[GalNAc(b1-4)]Gal(b1-4)Glc
# In short: as §1
# [10] = biological target: Neu5Ac(a2-3)[GalNAc(b1-4)]Gal(b1-4)GlcNAc
# In short: as §1
# [11] = biological target: Neu5Ac(a2-3)[GalNAc(b1-4)]Gal(b1-4)GlcNAc(b1-3)GalNAc
# In short: as §1
# [12] = biological target: Neu5Ac(a2-3)[Neu5Ac(a2-6)]GalNAc
# In short: as §1
# [13] = biological target: Neu5Ac(a2-6)Gal
# In short: as §1
# [14] = biological target: Neu5Ac(a2-6)Gal(b1-3)GlcNAc(b1-3)[Gal(b1-4)GlcNAc(b1-6)]Gal(b1-4)Glc
# In short: as §1
# [15] = biological target: Neu5Ac(a2-6)Gal(b1-4)Glc
# In short: as §1
# [16] = biological target: Neu5Ac(a2-6)Gal(b1-4)GlcNAc
# In short: as §1
# [17] = biological target: Neu5Ac(a2-6)Gal(b1-4)GlcNAc(b1-2)Man(a1-3)Man(b1-4)GlcNAc(b1-4)GlcNAc
# In short: as §1
# [18] = biological target: Neu5Ac(a2-6)Gal(b1-4)GlcNAc(b1-2)Man(a1-3)[Gal(b1-4)GlcNAc(b1-2)Man(a1-6)]Man(b1-4)GlcNAc(b1-4)GlcNAc
# In short: as §1
# [19] = biological target: Neu5Ac(a2-6)Gal(b1-4)GlcNAc(b1-2)Man(a1-3)[GlcNAc(b1-2)Man(a1-6)]Man(b1-4)GlcNAc(b1-4)GlcNAc
# In short: as §1
# [20] = biological target: Neu5Ac(a2-6)Gal(b1-4)GlcNAc(b1-2)Man(a1-3)[GlcNAc(b1-2)Man(b1-4)GlcNAc(b1-2)Man(a1-6)]Man(b1-4)GlcNAc(b1-4)GlcNAc
# In short: as §1
# [21] = biological target: Neu5Ac(a2-6)Gal(b1-4)GlcNAc(b1-2)Man(a1-3)[Man(a1-6)]Man(b1-4)GlcNAc(b1-4)GlcNAc
# In short: as §1
# [22] = biological target: Neu5Ac(a2-6)Gal(b1-4)GlcNAc(b1-2)Man(a1-3)[Neu5Ac(a2-6)Gal(b1-4)GlcNAc(b1-2)Man(a1-6)]Man(b1-4)GlcNAc(b1-4)GlcNAc
# In short: as §1
# [23] = biological target: Neu5Ac(a2-6)Gal(b1-4)GlcNAc(b1-2)Man(a1-3)[Neu5Ac(a2-6)Gal(b1-4)GlcNAc(b1-2)Man(a1-6)]Man(b1-4)GlcNAc(b1-4)[Fuc(a1-6)]GlcNAc
# In short: as §1
# [24] = biological target: Neu5Ac(a2-6)Gal(b1-4)GlcNAc(b1-2)Man(a1-6)Man(b1-4)GlcNAc(b1-4)GlcNAc
# In short: as §1
# [25] = biological target: Neu5Ac(a2-6)Gal(b1-4)GlcNAc(b1-2)Man(a1-6)[Gal(b1-4)GlcNAc(b1-2)Man(a1-3)]Man(b1-4)GlcNAc(b1-4)GlcNAc
# In short: as §1
# [26] = biological target: Neu5Ac(a2-6)Gal(b1-4)GlcNAc(b1-2)Man(a1-6)[GlcNAc(b1-2)Man(a1-3)]Man(b1-4)GlcNAc(b1-4)GlcNAc
# In short: as §1
# [27] = biological target: Neu5Ac(a2-6)Gal(b1-4)GlcNAc(b1-2)Man(a1-6)[Man(a1-3)]Man(b1-4)GlcNAc(b1-4)GlcNAc
# In short: as §1
# [28] = biological target: Neu5Ac(a2-6)Gal(b1-4)GlcNAc(b1-3)Gal(b1-3)GlcNAc
# In short: as §1
# [29] = biological target: Neu5Ac(a2-6)Gal(b1-4)GlcNAc(b1-3)Gal(b1-4)GlcNAc
# In short: as §1
# [30] = biological target: Neu5Ac(a2-6)Gal(b1-4)GlcNAc(b1-3)Gal(b1-4)GlcNAc(b1-3)Gal(b1-4)GlcNAc
# In short: as §1
# [31] = biological target: Neu5Ac(a2-6)Gal(b1-4)GlcNAc(b1-3)Gal(b1-4)[Fuc(a1-3)]GlcNAc(b1-3)Gal(b1-4)[Fuc(a1-3)]GlcNAc
# In short: as §1
# [32] = biological target: Neu5Ac(a2-6)Gal(b1-4)GlcNAc(b1-3)GalNAc
# In short: as §1
# [33] = biological target: Neu5Ac(a2-6)Gal(b1-4)GlcNAc(b1-3)[Neu5Ac(a2-6)Gal(b1-4)GlcNAc(b1-6)]GalNAc
# In short: as §1
# [34] = biological target: Neu5Ac(a2-6)Gal(b1-4)GlcNAc(b1-6)GalNAc
# In short: as §1
# [35] = biological target: Neu5Ac(a2-6)Gal(b1-4)GlcNAc(b1-6)[Gal(b1-3)GlcNAc(b1-3)]Gal(b1-4)Glc
# In short: as §1
# [36] = biological target: Neu5Ac(a2-6)Gal(b1-4)GlcNAc6S
# In short: as §1
# [37] = biological target: Neu5Ac(a2-6)GalNAc
# In short: as §1
# [38] = biological target: Neu5Ac(a2-6)GalNAc(b1-4)GlcNAc
# In short: as §1
binder,measurement,setting,value
B1,glycan array binding signal (z-score),[1],-0.102
same,glycan array binding signal (z-score),[2],6.37
same,glycan array binding signal (z-score),[3],1.57
same,glycan array binding signal (z-score),[4],0.199
same,glycan array binding signal (z-score),[5],-1.27
same,glycan array binding signal (z-score),[6],0.841
same,glycan array binding signal (z-score),[7],0.532
same,glycan array binding signal (z-score),[8],-0.222
same,glycan array binding signal (z-score),[9],-0.899
same,glycan array binding signal (z-score),[10],-0.776
same,glycan array binding signal (z-score),[11],1.04
same,glycan array binding signal (z-score),[12],0.19
same,glycan array binding signal (z-score),[13],0.413
same,glycan array binding signal (z-score),[14],-0.689
same,glycan array binding signal (z-score),[15],0.917
same,glycan array binding signal (z-score),[16],-0.441
same,glycan array binding signal (z-score),[17],0.578
same,glycan array binding signal (z-score),[18],-1.07
same,glycan array binding signal (z-score),[19],-0.169
same,glycan array binding signal (z-score),[20],1.06
same,glycan array binding signal (z-score),[21],3.98
same,glycan array binding signal (z-score),[22],-0.048
same,glycan array binding signal (z-score),[23],2.24
same,glycan array binding signal (z-score),[24],-0.293
same,glycan array binding signal (z-score),[25],-0.073
same,glycan array binding signal (z-score),[26],-0.501
same,glycan array binding signal (z-score),[27],-0.534
same,glycan array binding signal (z-score),[28],0.123
same,glycan array binding signal (z-score),[29],-1.04
same,glycan array binding signal (z-score),[30],0.765
same,glycan array binding signal (z-score),[31],-0.773
same,glycan array binding signal (z-score),[32],-0.57
same,glycan array binding signal (z-score),[33],-0.797
same,glycan array binding signal (z-score),[34],0.847
same,glycan array binding signal (z-score),[35],-0.439
same,glycan array binding signal (z-score),[36],-0.302
same,glycan array binding signal (z-score),[37],-0.306
same,glycan array binding signal (z-score),[38],-0.624
